Substitutions are numbered along the chain they refer to. For at least one entry, the source does not settle the construct or the ends of the probe. For some of these results: Weaker means in comparison with the reference protein, sequence or condition of that experiment. Protein sequences can lack the tags named with them.
Tests used:
Assay in all cases: enzyme reaction in vitro
[1] = tested on: T1, BsmI R16D (Bacillus stearothermophilus NUB36); settings: ds-DNA cleavage; protein in an extract; only the site is given
T1 sequence: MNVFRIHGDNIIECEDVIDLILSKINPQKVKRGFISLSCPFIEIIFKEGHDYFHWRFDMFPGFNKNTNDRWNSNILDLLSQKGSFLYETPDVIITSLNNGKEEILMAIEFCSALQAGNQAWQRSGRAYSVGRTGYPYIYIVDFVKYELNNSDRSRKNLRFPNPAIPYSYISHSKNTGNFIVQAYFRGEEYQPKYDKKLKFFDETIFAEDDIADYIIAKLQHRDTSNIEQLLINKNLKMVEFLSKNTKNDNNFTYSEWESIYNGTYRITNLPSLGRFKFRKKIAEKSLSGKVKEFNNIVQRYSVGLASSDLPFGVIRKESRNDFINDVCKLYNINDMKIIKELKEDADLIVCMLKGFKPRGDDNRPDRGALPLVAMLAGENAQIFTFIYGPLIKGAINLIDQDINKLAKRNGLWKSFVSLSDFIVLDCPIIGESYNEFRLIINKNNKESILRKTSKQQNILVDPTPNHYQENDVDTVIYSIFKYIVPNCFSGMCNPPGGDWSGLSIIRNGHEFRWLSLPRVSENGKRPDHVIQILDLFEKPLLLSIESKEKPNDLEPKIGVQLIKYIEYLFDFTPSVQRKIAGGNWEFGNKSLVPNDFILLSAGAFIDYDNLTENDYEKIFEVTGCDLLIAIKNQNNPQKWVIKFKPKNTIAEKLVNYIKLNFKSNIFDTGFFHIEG

[2] = tested on: T2, BsmI R32D (Bacillus stearothermophilus NUB36); settings: ds-DNA cleavage; protein in an extract; only the site is given
T2 sequence: T1 sequence with D16R, R32D

[3] = tested on: T3, BsmI R359D (Bacillus stearothermophilus NUB36); settings: low nicking activity, low ds-DNA cleavage; protein in an extract; only the site is given
T3 sequence: T1 sequence with D16R, R359D

[4] = tested on: T4, BsmI R70D (Bacillus stearothermophilus NUB36); settings: ds-DNA cleavage; protein in an extract; only the site is given
T4 sequence: T1 sequence with D16R, R70D

GCATTC [pBR322 supercoiled plasmid (one BsmI site)]
activity on this sequence [1]: active | activity on this sequence [2]: active | activity on this sequence [3]: less active | activity on this sequence [4]: active

Source: patent US20080213860
